Assay results published in PubChem BioAssay AID485314 (National Center for Advancing Translational Sciences (NCATS), 2010).
Screen size: about 340,000 compounds; about 4,500 (1.3%) were called active. Inconclusive means that the source gave no clear call. Such entries were picked first, then a sample of the others. The call rests on the fitted dose curve; in most records, active means well fitted inhibition curve with a large enough effect; inconclusive means small, poorly fitted or top-dose-only effect, or another doubt; inactive means no such curve, though single readings can be large or run the other way. Where the call is inconclusive, the potency comes from a doubtful curve fit.

Target: DNA polymerase beta (Homo sapiens) (UniProt P06746)
Test: qHTS Assay for Inhibitors of DNA Polymerase Beta
Settings: Pol beta primer extension/strand displacement, fluorescence kinetic; activity change, negative = inhibition: at 114 µM (top of the series)
Method in brief: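 Pol beta (10 nM) and compounds were preincubated 15 min at room temperature, then 50 nM substrate (final) started primer extension/strand displacement. Reads were taken at 0 and 10 min; concentration-response data were fitted to a four-parameter Hill equation.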
On the % scale 0 is the no-effect control and ±100 the full control effect; potency means the concentration at half of the fitted maximal effect.

Activity change, negative = inhibition, inconclusive:
CC1C(=O)Nc2ccc(S(=O)(=O)N3CCN(c4cccc(C(F)(F)F)c4)CC3)cc2NC1=O (stereo not drawn) -33.9% [inhibitor]
COc1ccc(-c2oc3ncn4nc(-c5ccccc5Br)nc4c3c2-c2ccc(OC)cc2)cc1 -32.5% [inhibitor]

Activity change, negative = inhibition, inactive:
Oc1ccc(F)c2cccnc12 15.1%
CCOC(=O)C1CCN(C(=O)Cn2nc(C)n3nc(-c4ccc(CC)cc4)cc3c2=O)CC1 21.2%
COc1ccc(C)cc1NC(=O)CN1c2ccccc2S(=O)(=O)c2ccccc21 54.9%
O=C(c1ccc(F)cc1)c1cc2ccc(O)cc2oc1=O 2.53%
CCNc1cc(Nc2c(C)n(C)n(-c3ccccc3)c2=O)c([N+](=O)[O-])c2nonc12 6.38%
CCn1c(C(C)NC(=O)c2cccs2)n[nH]c1=S (stereo not drawn) 4.56%
Cc1ccc(SCc2cc(=O)[nH]c(/N=C(\N)Nc3cccc4ccccc34)n2)cc1 52.8%
COc1cc(NC(=O)C2CC(c3c(F)cccc3Cl)=NO2)c(OC)cc1Cl (stereo not drawn) 24.6%
COc1ccc(C(C(N)=O)c2ncc(C(F)(F)F)cc2Cl)cc1OC (stereo not drawn) 20.4%
CSc1ncc(Cl)c(C(=O)Nc2ccc(S(=O)(=O)N3CCC(C)CC3)cc2)n1 -28.9%
CCC1S/C(=N/N=C/c2ccco2)N(c2ccc(F)cc2)C1=O (stereo not drawn) 29%
Nc1sc2c(c1C(=O)c1ccccc1)CCCC2 9.96%
O=C(COc1ccc(Cl)cc1)Nc1ncc([N+](=O)[O-])s1 0.116%
CC1=C(C(=O)Nc2ccccc2C)C(c2ccncc2)n2nc(SCc3ccccc3)nc2N1 (stereo not drawn) 0.207%
Cc1ccc(NC(=O)Cn2c(=O)n(-c3ccc(Cl)c(Cl)c3)c(=O)c3c(C)c(C)sc32)c(C)c1 0.578%
Cc1ccc(C)c(SCC(=O)OCC(=O)Nc2ncc(C(F)(F)F)cc2Cl)c1 8.14%

A draw from above in order of SMILES length, low to high.
Activity change, negative = inhibition, inactive:
Nc1sc2c(c1C(=O)c1ccccc1)CCCC2 9.96%
CSc1ncc(Cl)c(C(=O)Nc2ccc(S(=O)(=O)N3CCC(C)CC3)cc2)n1 -28.9%
CCNc1cc(Nc2c(C)n(C)n(-c3ccccc3)c2=O)c([N+](=O)[O-])c2nonc12 6.38%
Cc1ccc(NC(=O)Cn2c(=O)n(-c3ccc(Cl)c(Cl)c3)c(=O)c3c(C)c(C)sc32)c(C)c1 0.578%

Next part:

Potency, active:
CCn1c(/C=C/c2ccc(O)c(O)c2)nc2ccccc2c1=O 22.4 µM
O=c1[nH]c2ccc(S(=O)(=O)N3CCN(c4ccccc4)CC3)cc2[nH]c1=O 44.7 µM
CCc1ccc(OCCCSc2nc(-c3ccc(C(C)(C)C)cc3)nc3cc(=O)[nH]n23)cc1 17.8 µM
COc1cc(OC)c(NC(=O)CCCn2nc(C)c3sc4ccccc4c3c2=O)cc1Cl 15.8 µM
COc1ccc(/C=N/NC(=O)c2cc(-c3ccc4c(c3)OCO4)n[nH]2)cc1OC 4.47 µM

Potency, inconclusive:
COc1cc(C(=O)NC2=C(C#N)CCC2)cc(OC)c1OC 25.1 µM [inhibitor, full curve, poor fit]
CNC(=O)c1c[nH]c2ccc(S(=O)(=O)Nc3cccc(SC)c3)cc2c1=O 50.1 µM [inhibitor, partial curve, poor fit]
O=c1[nH]ncc(N2CCCCCC2)c1Cl 63.1 µM [inhibitor, single point]
O=C(Cc1ccsc1)Nc1ccc(Cl)cc1Cl 0.891 µM [inhibitor, full curve, poor fit]
CC(=O)Nc1sc(C)c(C)c1C(=O)OCCOc1ccccc1 89.1 µM [inhibitor, single point]
CCCSC1=C(C#N)C(c2ccccc2C)C(C(=O)OC)C(=O)N1 (stereo not drawn) 39.8 µM [inhibitor, partial curve, poor fit]
CN(C)S(=O)(=O)c1cccc(NC(=S)N/N=C/c2cccc(O)c2)c1 89.1 µM [inhibitor, single point]
CCN(CC)C(=O)CSc1nnc(-c2cc(OC)cc(OC)c2)o1 0.631 µM [inhibitor, full curve]
Clc1ccc(OCCN2CCCCC2)cc1Cl 12.6 µM [inhibitor, partial curve]
O=C(Oc1ccc2c(c1)OCO2)C12CC3CC(CC(C3)C1)C2 89.1 µM [inhibitor, single point]
CCOC(=O)Nc1ccc2c(CN3C(=O)NC(CC)(CC)C3=O)cc(=O)oc2c1 39.8 µM [inhibitor, single point]
O=C(Nc1ccc(CSc2ccccc2)cc1)c1ccco1 0.141 µM [inhibitor, full curve, poor fit]
O=C(NCc1ccccc1F)C1CCN(c2nnc(-n3cccc3)s2)CC1 17.8 µM [inhibitor, full curve]
O=C1CC(Cc2ccccc2)C(=O)N1Cc1ccco1 (stereo not drawn) 31.6 µM [inhibitor, full curve, poor fit]
COc1cc(C=O)ccc1OS(=O)(=O)c1ccccc1[N+](=O)[O-] 70.8 µM [inhibitor, single point]
COc1ccc2c(c1)c(=O)c(C(=O)c1ccccc1)cn2CC(=O)Nc1ccc2c(c1)OCCO2 39.8 µM [inhibitor, single point]
O=C(N/N=C/c1ccc(N2CCOCC2)cc1)c1ccccc1OCCOc1ccccc1 70.8 µM [inhibitor, partial curve]
COc1ccc(CCN2CC(C(=O)NC3CCCCC3)CC2=O)cc1OC (stereo not drawn) 50.1 µM [inhibitor, single point]
COc1ccc2c(c1)CC(NC(=O)Nc1cc(Cl)ccc1OC)CO2 (stereo not drawn) 100 µM [inhibitor, single point]
Cc1sc(-n2cccc2)c(C(=O)O)c1C 17.8 µM [inhibitor, full curve]
O=C1C2CC=CCC2C(=O)N1c1ccc(N2CCN(c3ccccn3)CC2)c([N+](=O)[O-])c1 (stereo not drawn) 10 µM [inhibitor, partial curve]
O=C1c2ccccc2C(=O)c2[nH]cnc21 1.78 µM [inhibitor, full curve]
CC(C)N1CCc2c(sc(NC(=O)Cc3ccccc3)c2C(N)=O)C1 20 µM [inhibitor, partial curve, poor fit]
CCC(C)[C@@H](C(=O)N1CCNCC1)n1cc(CCCCN)nn1 (stereo partly drawn) 79.4 µM [inhibitor, single point]
O=C(N/N=C/c1ccc[nH]1)c1ccc(O)cc1 0.562 µM [inhibitor, full curve]
Cc1ccccc1NC(=O)c1ccc2nc(Cc3ccccc3)oc2c1 89.1 µM [inhibitor, single point]
CCOc1ccccc1NC(=O)c1ccoc1C 0.708 µM [inhibitor, full curve, poor fit]
CCOC(=O)c1ccc(NC(=O)c2c(NCc3cccs3)sc3c2CCCCC3)cc1 89.1 µM [inhibitor, single point]
CCOC(=O)C1CCN(C(=O)Cn2nc(C)n3nc(-c4ccc(OC)cc4)cc3c2=O)CC1 8.91 µM [inhibitor, single point]
Cc1ccc(-c2nc(C#N)c(NCCN3CCCCC3)o2)cc1 89.1 µM [inhibitor, single point]
Oc1ccc(-c2csc(Nc3ncccn3)n2)cc1O 0.631 µM [inhibitor, full curve, poor fit]
O=C(Cc1ccc(F)cc1)NCC1CCCO1 (stereo not drawn) 11.2 µM [inhibitor, partial curve, poor fit]
COc1ccc(CN(C(=S)Nc2ccccc2)C2CC(=O)N(c3ccccc3)C2=O)cc1 (stereo not drawn) 1.26 µM [inhibitor, full curve, poor fit]
O=C(O)CN1C(=O)/C(=C\C(Br)=C\c2ccccc2)SC1=S 22.4 µM [inhibitor, partial curve]
O=c1c2c(-c3cccs3)csc2[nH]c(=S)n1-c1ccccc1 56.2 µM [inhibitor, partial curve]
C/C(N)=C(/C#N)C(=O)COC(=O)c1ccc(C)c(S(=O)(=O)N2CCCCC2)c1 79.4 µM [inhibitor, partial curve]
COc1ccccc1CNc1ccc(-c2nc(C)no2)cc1[N+](=O)[O-] 39.8 µM [inhibitor, full curve]
O=C(c1cnccn1)N1CCc2ccccc21 89.1 µM [inhibitor, single point]
COc1nc(-c2ccc(C)cc2)ccc1-c1noc(-c2ccccc2Br)n1 56.2 µM [inhibitor, single point]
CCOC(=O)c1cc([N+](=O)[O-])sc1NC(=O)c1ccc(S(=O)(=O)N2CC3(C)CC2CC(C)(C)C3)cc1 (stereo not drawn) 79.4 µM [inhibitor, single point]
Cc1ccc(S(=O)(=O)Cc2ccc(C(=O)N3CCN(c4ccc(F)cc4)CC3)o2)cc1 39.8 µM [inhibitor, single point]
CCCCOC(=O)CSc1nnc(-c2ccccc2)o1 89.1 µM [inhibitor, single point]
COc1ccc(-n2c(=O)c3c4c(sc3n(Cc3ccccc3)c2=O)CN(C(C)=O)CC4)cc1OC 89.1 µM [inhibitor, single point]
CC1=C(c2ccc(C)c(C)c2)S(=O)(=O)N=C1N1CCC(C(=O)NCCc2ccc(Cl)cc2)CC1 20 µM [inhibitor, full curve]
C=C(CO)C1Cc2cc(C(C)=O)ccc2O1 (stereo not drawn) 8.91 µM [inhibitor, full curve, poor fit]

Two compounds picked at random from the list so far, as already listed:
Potency, inconclusive:
O=c1[nH]ncc(N2CCCCCC2)c1Cl 63.1 µM [inhibitor, single point]
O=c1c2c(-c3cccs3)csc2[nH]c(=S)n1-c1ccccc1 56.2 µM [inhibitor, partial curve]
